Results are given in words; binding and its absence hold for the method and conditions named. In cells and extracts the contact can be indirect. Here binding means that the protein was enriched with, or labelled near, the bait; the list need not be complete.

By UniProt entry, the sequences of proteins in these tests, tags left out.
UniProt Q8NCD3: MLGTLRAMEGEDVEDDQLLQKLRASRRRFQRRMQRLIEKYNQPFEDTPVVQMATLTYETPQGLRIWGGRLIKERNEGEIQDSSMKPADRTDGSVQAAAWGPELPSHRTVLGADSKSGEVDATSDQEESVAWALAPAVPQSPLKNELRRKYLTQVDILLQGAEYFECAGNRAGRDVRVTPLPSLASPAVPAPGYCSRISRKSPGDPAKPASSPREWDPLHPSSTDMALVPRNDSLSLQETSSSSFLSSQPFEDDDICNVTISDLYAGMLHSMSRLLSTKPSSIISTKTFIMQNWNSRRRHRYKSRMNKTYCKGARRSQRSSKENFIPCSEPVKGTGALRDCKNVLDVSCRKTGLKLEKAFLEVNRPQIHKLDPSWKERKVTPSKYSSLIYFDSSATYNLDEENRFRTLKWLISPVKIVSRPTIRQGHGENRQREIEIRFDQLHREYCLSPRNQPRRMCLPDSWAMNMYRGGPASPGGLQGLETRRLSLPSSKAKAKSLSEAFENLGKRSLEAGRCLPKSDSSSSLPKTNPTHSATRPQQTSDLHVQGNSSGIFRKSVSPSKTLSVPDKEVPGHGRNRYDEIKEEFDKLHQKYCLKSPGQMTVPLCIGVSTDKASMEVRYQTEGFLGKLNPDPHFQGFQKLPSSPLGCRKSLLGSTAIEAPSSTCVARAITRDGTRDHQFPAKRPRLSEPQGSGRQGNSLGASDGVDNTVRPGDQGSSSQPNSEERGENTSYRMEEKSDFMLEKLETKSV

The target of experiment [1] is Holliday junction recognition protein (HJURP) (human (endogenous in C4-2 and PC3)) (UniProt Q8NCD3). Kind of experiment: affinity purification with mass spectrometry; C4-2 cells treated with 10 μM H2O2 for 2 min and 20 mM MMTS, endogenous HJURP precipitated with anti-HJURP antibody (IgG as control), non-reducing SDS-PAGE, disulfide-linked intermediates >75 KDa analysed by LC-MS/MS; in duplicate.

For experiment [2] the target is unchanged. In words: affinity purification with mass spectrometry; C4-2 lysate, Co-IP with anti-HJURP antibody (IgG as control), reductive SDS-PAGE, the gel bands of all the proteins analysed by LC-MS/MS; in duplicate.

B1: peroxiredoxin 1 (PRDX1) (enzyme, UniProt Q06830 1-199)
chain: MSSGNAKIGHPAPNFKATAVMPDGQFKDISLSDYKGKYVVFFFYPLDFTFVCPTEIIAFSDRAEEFKKLNCQVIGASVDSHFCHLAWVNTPKKQGGLGPMNIPLVSDPKRTIAQDYGVLKADEGISFRGLFIIDDKGILRQITVNDLPVGRSVDETLRLVQAFQFTDKHGEVCPAGWKPGSDTIKPDVQKSKEYFSKQK
B1: the binding result in experiment [1] and in experiment [2] was “binds” throughout.

The record behind these values is publication PMC11525750.
